The supplement of paper PMC10849652
The list shows a part of the results.

Amino acid sequences for entries named in this document (tags omitted). A change or cut given only in a name is not applied to a line headed by its entry.
UniProt Q9NVR0: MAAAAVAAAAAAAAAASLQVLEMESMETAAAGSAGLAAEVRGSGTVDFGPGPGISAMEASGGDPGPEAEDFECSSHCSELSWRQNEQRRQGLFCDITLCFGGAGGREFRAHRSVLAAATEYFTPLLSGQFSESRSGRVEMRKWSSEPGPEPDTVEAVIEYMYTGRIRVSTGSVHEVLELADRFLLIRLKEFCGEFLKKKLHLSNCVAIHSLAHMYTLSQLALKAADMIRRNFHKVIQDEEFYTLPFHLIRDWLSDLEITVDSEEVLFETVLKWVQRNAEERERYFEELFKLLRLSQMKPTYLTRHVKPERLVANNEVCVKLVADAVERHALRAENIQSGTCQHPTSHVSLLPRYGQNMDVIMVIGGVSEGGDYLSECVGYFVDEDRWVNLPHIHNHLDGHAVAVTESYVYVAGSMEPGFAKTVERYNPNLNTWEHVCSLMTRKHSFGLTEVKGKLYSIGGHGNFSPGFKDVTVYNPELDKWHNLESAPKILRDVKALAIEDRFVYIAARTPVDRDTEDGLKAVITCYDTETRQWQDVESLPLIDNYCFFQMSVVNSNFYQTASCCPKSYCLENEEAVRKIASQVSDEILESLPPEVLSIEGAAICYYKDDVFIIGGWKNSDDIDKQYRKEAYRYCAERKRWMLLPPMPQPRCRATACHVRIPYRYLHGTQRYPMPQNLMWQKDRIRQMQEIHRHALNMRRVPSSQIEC
UniProt Q9H910: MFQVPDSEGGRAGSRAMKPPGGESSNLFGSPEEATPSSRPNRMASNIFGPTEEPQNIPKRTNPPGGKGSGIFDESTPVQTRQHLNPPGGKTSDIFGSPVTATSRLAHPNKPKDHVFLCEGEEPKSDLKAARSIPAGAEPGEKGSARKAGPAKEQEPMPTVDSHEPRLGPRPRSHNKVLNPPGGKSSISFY
UniProt Q7L273: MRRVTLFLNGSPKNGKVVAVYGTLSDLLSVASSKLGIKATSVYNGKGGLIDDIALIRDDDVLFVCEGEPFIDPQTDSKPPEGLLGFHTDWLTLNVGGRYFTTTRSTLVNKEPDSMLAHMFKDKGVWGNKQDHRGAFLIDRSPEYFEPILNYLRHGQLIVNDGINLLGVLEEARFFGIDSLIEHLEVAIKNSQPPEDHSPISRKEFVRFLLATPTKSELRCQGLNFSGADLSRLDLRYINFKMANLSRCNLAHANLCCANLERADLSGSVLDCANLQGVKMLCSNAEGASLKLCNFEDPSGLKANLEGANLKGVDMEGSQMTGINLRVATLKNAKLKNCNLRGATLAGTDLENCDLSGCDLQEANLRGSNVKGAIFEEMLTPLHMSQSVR
UniProt Q96AT1: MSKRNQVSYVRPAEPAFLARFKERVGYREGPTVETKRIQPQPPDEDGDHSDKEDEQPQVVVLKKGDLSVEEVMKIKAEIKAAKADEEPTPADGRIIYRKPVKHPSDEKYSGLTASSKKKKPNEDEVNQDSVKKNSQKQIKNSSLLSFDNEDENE
UniProt Q9BVA0, whole entry, looked up: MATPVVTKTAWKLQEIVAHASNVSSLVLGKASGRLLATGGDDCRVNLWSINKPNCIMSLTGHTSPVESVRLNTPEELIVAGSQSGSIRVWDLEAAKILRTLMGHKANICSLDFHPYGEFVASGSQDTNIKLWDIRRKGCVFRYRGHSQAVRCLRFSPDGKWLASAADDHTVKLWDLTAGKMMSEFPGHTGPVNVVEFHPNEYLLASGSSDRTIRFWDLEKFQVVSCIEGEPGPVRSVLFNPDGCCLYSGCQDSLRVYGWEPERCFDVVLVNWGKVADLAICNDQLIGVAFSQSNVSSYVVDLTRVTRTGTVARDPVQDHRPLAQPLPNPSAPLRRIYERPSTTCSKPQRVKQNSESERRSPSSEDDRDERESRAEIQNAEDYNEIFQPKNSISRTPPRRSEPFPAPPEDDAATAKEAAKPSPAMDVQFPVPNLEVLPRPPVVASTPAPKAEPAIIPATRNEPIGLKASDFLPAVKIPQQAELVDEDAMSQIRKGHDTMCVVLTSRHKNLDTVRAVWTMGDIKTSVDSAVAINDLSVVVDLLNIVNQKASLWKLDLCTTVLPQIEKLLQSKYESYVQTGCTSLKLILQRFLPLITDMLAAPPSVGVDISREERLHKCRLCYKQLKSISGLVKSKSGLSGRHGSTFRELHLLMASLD
UniProt Q07866: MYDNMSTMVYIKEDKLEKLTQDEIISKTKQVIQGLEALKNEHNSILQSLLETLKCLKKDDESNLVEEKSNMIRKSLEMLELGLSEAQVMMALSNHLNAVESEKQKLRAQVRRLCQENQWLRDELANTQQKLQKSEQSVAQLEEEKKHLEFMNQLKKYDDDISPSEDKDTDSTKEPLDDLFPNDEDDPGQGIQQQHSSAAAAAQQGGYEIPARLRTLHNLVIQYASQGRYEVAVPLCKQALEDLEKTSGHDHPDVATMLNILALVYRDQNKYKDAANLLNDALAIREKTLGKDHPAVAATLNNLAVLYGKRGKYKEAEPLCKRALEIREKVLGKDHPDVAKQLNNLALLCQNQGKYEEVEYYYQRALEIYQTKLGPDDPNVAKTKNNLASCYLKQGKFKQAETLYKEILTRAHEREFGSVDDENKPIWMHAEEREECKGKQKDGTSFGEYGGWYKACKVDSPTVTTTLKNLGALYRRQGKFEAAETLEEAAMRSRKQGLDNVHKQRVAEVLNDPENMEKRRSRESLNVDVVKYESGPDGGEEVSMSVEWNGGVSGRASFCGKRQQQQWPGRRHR
UniProt Q9P206: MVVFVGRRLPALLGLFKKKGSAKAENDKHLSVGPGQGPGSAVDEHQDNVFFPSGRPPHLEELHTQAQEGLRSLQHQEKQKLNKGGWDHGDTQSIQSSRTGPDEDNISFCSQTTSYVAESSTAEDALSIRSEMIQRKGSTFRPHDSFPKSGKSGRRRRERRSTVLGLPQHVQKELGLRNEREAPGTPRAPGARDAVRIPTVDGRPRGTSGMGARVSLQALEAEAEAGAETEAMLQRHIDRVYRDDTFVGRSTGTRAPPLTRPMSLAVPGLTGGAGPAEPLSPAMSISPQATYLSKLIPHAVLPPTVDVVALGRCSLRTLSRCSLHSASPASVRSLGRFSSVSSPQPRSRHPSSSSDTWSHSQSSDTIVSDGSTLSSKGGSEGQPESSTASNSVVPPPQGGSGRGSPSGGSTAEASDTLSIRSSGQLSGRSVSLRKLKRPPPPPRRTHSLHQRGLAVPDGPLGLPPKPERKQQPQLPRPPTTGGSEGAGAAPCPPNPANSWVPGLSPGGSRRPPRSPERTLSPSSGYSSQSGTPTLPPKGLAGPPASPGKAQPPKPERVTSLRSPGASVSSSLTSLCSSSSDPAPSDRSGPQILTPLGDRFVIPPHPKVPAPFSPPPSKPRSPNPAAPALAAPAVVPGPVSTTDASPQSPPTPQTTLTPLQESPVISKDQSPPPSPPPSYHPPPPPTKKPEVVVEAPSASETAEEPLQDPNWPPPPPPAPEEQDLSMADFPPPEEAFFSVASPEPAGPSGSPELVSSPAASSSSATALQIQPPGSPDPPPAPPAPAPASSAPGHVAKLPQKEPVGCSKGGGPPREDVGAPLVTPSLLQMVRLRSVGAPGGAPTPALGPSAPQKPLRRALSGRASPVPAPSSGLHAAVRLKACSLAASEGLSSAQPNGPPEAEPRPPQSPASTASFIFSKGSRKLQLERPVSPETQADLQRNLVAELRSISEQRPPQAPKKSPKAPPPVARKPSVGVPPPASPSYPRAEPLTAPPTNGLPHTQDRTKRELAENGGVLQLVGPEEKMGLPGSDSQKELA
UniProt Q8N371: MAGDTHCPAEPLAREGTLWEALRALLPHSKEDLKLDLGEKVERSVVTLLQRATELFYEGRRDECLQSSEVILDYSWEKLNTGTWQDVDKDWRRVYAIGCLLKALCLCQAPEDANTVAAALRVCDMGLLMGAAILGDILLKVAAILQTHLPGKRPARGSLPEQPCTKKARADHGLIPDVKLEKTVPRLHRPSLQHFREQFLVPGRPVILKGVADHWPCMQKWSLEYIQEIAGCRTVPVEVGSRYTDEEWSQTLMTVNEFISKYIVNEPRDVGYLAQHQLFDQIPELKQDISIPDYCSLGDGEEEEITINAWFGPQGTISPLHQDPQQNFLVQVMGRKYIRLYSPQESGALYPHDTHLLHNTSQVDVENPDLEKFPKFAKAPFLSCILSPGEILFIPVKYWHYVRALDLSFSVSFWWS
UniProt Q8N5M9: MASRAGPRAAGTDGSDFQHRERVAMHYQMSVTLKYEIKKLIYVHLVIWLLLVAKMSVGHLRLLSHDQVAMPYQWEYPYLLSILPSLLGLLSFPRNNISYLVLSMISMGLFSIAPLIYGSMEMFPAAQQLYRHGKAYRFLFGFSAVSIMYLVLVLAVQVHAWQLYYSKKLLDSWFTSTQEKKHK
UniProt Q9NXV2: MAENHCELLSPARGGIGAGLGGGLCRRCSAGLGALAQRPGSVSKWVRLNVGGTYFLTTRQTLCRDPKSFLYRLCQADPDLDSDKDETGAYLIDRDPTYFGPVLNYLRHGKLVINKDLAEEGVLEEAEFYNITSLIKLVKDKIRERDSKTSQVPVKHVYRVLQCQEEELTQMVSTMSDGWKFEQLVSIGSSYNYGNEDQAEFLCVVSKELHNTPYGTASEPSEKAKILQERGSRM
UniProt Q96SI1: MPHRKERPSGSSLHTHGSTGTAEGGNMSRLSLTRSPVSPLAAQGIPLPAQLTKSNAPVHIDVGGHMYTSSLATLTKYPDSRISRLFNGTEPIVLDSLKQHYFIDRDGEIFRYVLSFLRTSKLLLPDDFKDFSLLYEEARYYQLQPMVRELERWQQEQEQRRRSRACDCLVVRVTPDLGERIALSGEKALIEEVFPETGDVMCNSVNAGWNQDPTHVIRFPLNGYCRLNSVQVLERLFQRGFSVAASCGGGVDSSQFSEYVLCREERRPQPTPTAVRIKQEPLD
UniProt Q8IYS2: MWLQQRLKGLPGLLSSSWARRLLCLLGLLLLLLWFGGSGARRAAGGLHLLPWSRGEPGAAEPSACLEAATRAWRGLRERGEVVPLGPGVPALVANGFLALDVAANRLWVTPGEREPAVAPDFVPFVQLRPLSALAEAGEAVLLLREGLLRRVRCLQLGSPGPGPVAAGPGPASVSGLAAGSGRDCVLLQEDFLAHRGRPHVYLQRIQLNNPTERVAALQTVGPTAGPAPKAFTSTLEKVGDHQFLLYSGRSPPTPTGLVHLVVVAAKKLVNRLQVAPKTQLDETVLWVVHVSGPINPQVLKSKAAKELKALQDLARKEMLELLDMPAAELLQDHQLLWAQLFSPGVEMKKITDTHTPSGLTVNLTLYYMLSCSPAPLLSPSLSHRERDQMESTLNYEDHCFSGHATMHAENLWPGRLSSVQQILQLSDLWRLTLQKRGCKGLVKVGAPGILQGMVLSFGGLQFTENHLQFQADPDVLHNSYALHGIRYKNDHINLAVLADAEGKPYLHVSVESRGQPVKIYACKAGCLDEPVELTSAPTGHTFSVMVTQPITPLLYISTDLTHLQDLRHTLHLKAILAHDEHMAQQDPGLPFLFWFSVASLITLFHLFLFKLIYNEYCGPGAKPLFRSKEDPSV
UniProt O75449: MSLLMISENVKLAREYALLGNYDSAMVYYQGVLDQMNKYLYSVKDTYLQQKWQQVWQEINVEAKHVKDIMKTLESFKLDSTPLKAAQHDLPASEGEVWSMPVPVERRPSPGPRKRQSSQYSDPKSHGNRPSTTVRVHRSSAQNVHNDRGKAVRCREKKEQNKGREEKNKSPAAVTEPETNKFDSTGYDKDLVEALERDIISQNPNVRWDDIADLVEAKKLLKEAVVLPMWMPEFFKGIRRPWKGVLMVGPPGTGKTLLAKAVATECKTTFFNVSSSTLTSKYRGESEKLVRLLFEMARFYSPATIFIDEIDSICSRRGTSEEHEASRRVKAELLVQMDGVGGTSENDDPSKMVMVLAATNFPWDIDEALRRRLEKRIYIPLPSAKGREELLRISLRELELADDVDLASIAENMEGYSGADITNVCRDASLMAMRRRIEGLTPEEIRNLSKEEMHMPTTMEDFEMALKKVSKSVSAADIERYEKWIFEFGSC
UniProt Q8IY47: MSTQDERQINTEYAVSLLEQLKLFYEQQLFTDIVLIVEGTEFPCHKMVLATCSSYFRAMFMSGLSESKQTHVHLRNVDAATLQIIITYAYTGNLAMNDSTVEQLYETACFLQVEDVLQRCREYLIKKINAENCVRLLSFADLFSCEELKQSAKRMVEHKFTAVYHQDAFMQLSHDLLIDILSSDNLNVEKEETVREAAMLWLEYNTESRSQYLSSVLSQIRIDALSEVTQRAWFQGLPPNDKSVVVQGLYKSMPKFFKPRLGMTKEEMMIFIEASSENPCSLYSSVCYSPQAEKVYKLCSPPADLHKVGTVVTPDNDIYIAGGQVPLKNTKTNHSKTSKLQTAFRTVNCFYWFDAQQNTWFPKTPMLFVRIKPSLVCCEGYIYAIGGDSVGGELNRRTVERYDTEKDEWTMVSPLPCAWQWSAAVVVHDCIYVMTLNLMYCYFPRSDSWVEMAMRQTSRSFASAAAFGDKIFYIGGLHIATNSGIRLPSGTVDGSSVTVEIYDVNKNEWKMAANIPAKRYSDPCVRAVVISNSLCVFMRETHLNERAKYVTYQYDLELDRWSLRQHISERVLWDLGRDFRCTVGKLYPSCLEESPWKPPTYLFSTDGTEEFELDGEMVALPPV

Columns and labels:
Test in all cases: log2 fold change, soluble protein after heating vs DMSO (PISA); higher = thermal stabilisation; K562 cells, 10 uM, 30 min; active = over 0.2 and 3.5 SD of the protein, either way, in both replicates (recomputed)
[1] = compound: NC(=O)Nc1cc(-c2cccc(F)c2)sc1C(=O)N[C@H]1CCCNC1
In short: (§1)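 K562 cells at 2×10^6 cells/mL were given 10 μM compound for 30 min. Aliquots then went through 3 min of heating across 48°C-58°C, were pooled, and were extracted in PBS with 0.5% NP-40 at 4°C, and the supernatant after 21,000xg for 90 min was quantified by TMTpro 16plex LC-MS/MS with channel sums equalised. Thermal stability relative to control samples, from duplicates, is given as log2 fold change.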

[2] = compound: NC(=O)c1cnc(N[C@@H]2CCCC[C@@H]2N)nc1Nc1cccc(-n2nccn2)c1
In short: as §1

[3] = compound: NC1(c2ccc(-c3nc4ccn5c(=O)[nH]nc5c4cc3-c3ccccc3)cc2)CCC1
In short: as §1

[4] = compound: NCC(=O)Nc1ccc(-n2nc(C(F)(F)F)cc2-c2ccc3c(ccc4ccccc43)c2)cc1
In short: as §1

[5] = compound: Nc1ccccc1NC(=O)c1ccc(CNC(=O)OCc2cccnc2)cc1 [entinostat]
In short: as §1

[6] = compound: O=C(CCCCCCC(=O)Nc1ccccc1)NO [vorinostat]
In short: as §1

[7] = compound: O=C(CCCCCCNC(=O)c1cnc(N(c2ccccc2)c2ccccc2Cl)nc1)NO [citarinostat]
In short: as §1

[8] = compound: O=C(O)c1ccc2c(c1)nc(Nc1cccc(Cl)c1)c1ccncc12 [silmitasertib]
In short: as §1

[9] = compound: O=C1NC(=O)C(c2cnc3ccccn23)=C1c1cn2c3c(cc(F)cc13)CN(C(=O)N1CCCCC1)CC2
In short: as §1

[10] = compound: c1cc(OCCN2CCCCC2)cc(-c2n[nH]c3ccc(-c4nnc[nH]4)cc23)c1
In short: as §1

[11] = compound: c1cn2cc(-c3ccc4cn[nH]c4c3)nc(Nc3ccc(N4CCOCC4)cc3)c2n1 [entospletinib]
In short: as §1

Target	log2 fold change [1]	log2 fold change [2]	log2 fold change [3]	log2 fold change [4]	log2 fold change [5]	log2 fold change [6]	log2 fold change [7]	log2 fold change [8]	log2 fold change [9]	log2 fold change [10]	log2 fold change [11]
KIF5A (UniProt Q12840)	inactive: -0.073	inactive: -0.019	inactive: -0.067	inactive: -0.006	inactive: -0.005	inactive: 0.026	inactive: -0.008	inactive: 0.025	inactive: 0.007	inactive: -0.038	inactive: 0.027
KLHL11 (UniProt Q9NVR0)	inactive: 0.095	inactive: -0.168	inactive: -0.1	inactive: -0.046	inactive: -0.009	inactive: -0.024	inactive: 0.195	inactive: 0.059	inactive: -0.002	inactive: 0.008	inactive: -0.085
KDM5C (UniProt P41229)	inactive: -0.006	inactive: 0	inactive: 0.005	inactive: -0.248	inactive: 0.145	inactive: 0.018	inactive: 0.13	inactive: -0.131	inactive: -0.029	inactive: 0.096	inactive: -0.093
KIDINS220 (UniProt Q9ULH0)	inactive: -0.036	inactive: 0.021	inactive: -0.001	inactive: -0.003	inactive: -0.013	inactive: -0.038	inactive: -0.018	inactive: -0.008	inactive: 0	inactive: -0.033	inactive: 0.013
KPNA2 (UniProt P52292)	inactive: 0.088	inactive: 0.026	inactive: 0.266	inactive: 0.062	inactive: 0.085	inactive: 0.191	inactive: 0.024	inactive: 0.172	inactive: 0.271	inactive: -0.114	inactive: 0.141
KHSRP (UniProt Q92945)	inactive: -0.016	inactive: -0.021	inactive: 0.026	inactive: -0.007	inactive: -0.022	inactive: -0.026	inactive: -0.062	inactive: -0.011	inactive: 0.004	inactive: 0.007	inactive: -0.002
JUNB (UniProt P17275)	inactive: -0.146	inactive: -0.282	inactive: 0.218	inactive: -0.051	inactive: -0.086	inactive: 0.058	inactive: -0.069	inactive: 0.096	inactive: -0.027	inactive: 0.017	inactive: 0.112
JPT2 isoform 3 (UniProt Q9H910)	inactive: 0.051	inactive: -0.004	inactive: 0.024	inactive: 0.007	inactive: -0.022	inactive: -0.039	inactive: -0.001	inactive: -0.041	inactive: -0.028	inactive: 0.047	inactive: 0.025
JPT1 (UniProt Q9UK76)	inactive: 0.047	inactive: 0.059	inactive: 0.101	inactive: 0.038	inactive: -0.015	inactive: -0.041	inactive: 0.029	inactive: -0.02	inactive: 0.011	inactive: 0.032	inactive: 0.01
KCTD9 (UniProt Q7L273)	inactive: -0.026	inactive: 0.008	inactive: -0.011	inactive: 0.038	inactive: -0.015	inactive: 0.008	inactive: 0.044	inactive: 0.008	inactive: -0.1	inactive: -0.113	inactive: 0.033
KIF5B (UniProt P33176)	inactive: -0.058	inactive: -0.026	inactive: -0.068	inactive: -0.022	inactive: 0.021	inactive: 0.002	inactive: 0.028	inactive: 0.006	inactive: 0.022	inactive: -0.015	inactive: -0.018
KIAA1143 (UniProt Q96AT1)	inactive: -0.094	inactive: -0.139	inactive: 0.026	inactive: -0.006	inactive: -0.079	inactive: 0	inactive: -0.053	inactive: 0.007	inactive: -0.275	inactive: -0.005	inactive: 0.056
KATNB1 (UniProt Q9BVA0)	inactive: -0.001	inactive: 0	inactive: -0.09	inactive: -0.112	inactive: 0.04	inactive: 0.163	inactive: 0.034	inactive: 0.013	inactive: 0.04	inactive: -0.144	inactive: -0.117
KIF3A (UniProt Q9Y496)	inactive: 0.075	inactive: 0.078	inactive: -0.011	inactive: -0.014	inactive: -0.011	inactive: -0.137	inactive: -0.076	inactive: -0.068	inactive: -0.048	inactive: -0.051	active: 0.491
KARS1 (UniProt Q15046)	inactive: 0.075	inactive: 0.065	inactive: 0.147	inactive: 0.07	inactive: -0.042	inactive: 0.059	inactive: -0.075	inactive: 0.124	inactive: 0.222	inactive: -0.145	inactive: 0.119
KLC1 isoform 6 (UniProt Q07866)	inactive: -0.04	inactive: -0.046	inactive: -0.079	inactive: -0.051	inactive: 0.027	inactive: 0.015	inactive: 0.035	inactive: 0.02	inactive: -0.015	inactive: -0.065	inactive: -0.025
KIAA1522 isoform 2 (UniProt Q9P206)	inactive: -0.099	inactive: -0.203	inactive: 0.116	inactive: 0.117	inactive: 0.087	inactive: 0.03	inactive: 0	inactive: 0.036	inactive: 0.063	inactive: -0.128	inactive: 0.179
KIAA0100 (UniProt Q14667)	inactive: 0.015	inactive: -0.014	inactive: -0.013	inactive: 0.017	inactive: -0.019	inactive: 0.052	inactive: -0.009	inactive: -0.015	inactive: -0.039	inactive: 0.004	inactive: 0.027
KMT2D isoform 3 (UniProt O14686)	inactive: -0.004	inactive: 0.015	inactive: 0.028	inactive: -0.001	inactive: -0.03	inactive: -0.089	inactive: -0.193	inactive: 0.121	inactive: 0.105	inactive: -0.237	inactive: 0
KLC4 isoform 3 (UniProt Q9NSK0)	inactive: -0.031	inactive: 0.028	inactive: -0.06	inactive: -0.03	inactive: 0.08	inactive: -0.011	inactive: 0.086	inactive: 0.063	inactive: -0.002	inactive: 0.036	inactive: -0.043
KDM8 isoform 3 (UniProt Q8N371)	inactive: 0.039	inactive: -0.076	inactive: -0.119	inactive: 0.004	inactive: -0.042	inactive: 0.162	inactive: 0.021	inactive: 0.035	inactive: -0.013	inactive: -0.028	inactive: -0.005
JAGN1 (UniProt Q8N5M9)	inactive: 0.013	inactive: -0.032	inactive: 0.015	inactive: -0.062	inactive: 0.026	inactive: -0.207	inactive: -0.022	inactive: 0.038	inactive: -0.044	inactive: -0.027	inactive: 0.028
KCTD5 (UniProt Q9NXV2)	inactive: -0.181	inactive: -0.09	inactive: 0.088	inactive: -0.009	inactive: -0.05	inactive: -0.113	inactive: 0.033	inactive: 0.019	inactive: -0.091	inactive: -0.134	inactive: 0.129
KCTD15 (UniProt Q96SI1)	inactive: -0.093	inactive: -0.045	inactive: -0.021	inactive: 0.022	inactive: -0.045	inactive: -0.045	inactive: 0.021	inactive: -0.028	inactive: 0.028	inactive: 0.002	inactive: -0.027
KIAA2013 isoform 2 (UniProt Q8IYS2)	inactive: -0.085	inactive: -0.034	inactive: -0.069	inactive: -0.03	inactive: -0.058	inactive: 0.036	inactive: 0.022	inactive: 0.029	inactive: -0.035	inactive: 0.03	inactive: -0.07
KATNA1 (UniProt O75449)	inactive: 0.021	inactive: -0.02	inactive: -0.043	inactive: -0.016	inactive: 0.012	inactive: -0.041	inactive: -0.062	inactive: -0.033	inactive: 0.026	inactive: -0.073	inactive: 0.066
KBTBD2 (UniProt Q8IY47)	inactive: 0.021	inactive: 0.022	inactive: -0.135	inactive: -0.027	inactive: -0.041	inactive: 0.006	inactive: 0.051	inactive: 0.018	inactive: -0.102	inactive: -0.027	inactive: -0.067

For reference, part of the list above.
Target	log2 fold change [1]	log2 fold change [2]	log2 fold change [3]	log2 fold change [4]	log2 fold change [5]	log2 fold change [6]	log2 fold change [7]	log2 fold change [8]	log2 fold change [9]	log2 fold change [10]	log2 fold change [11]
KCTD15 (UniProt Q96SI1)	inactive: -0.093	inactive: -0.045	inactive: -0.021	inactive: 0.022	inactive: -0.045	inactive: -0.045	inactive: 0.021	inactive: -0.028	inactive: 0.028	inactive: 0.002	inactive: -0.027
KIAA2013 isoform 2 (UniProt Q8IYS2)	inactive: -0.085	inactive: -0.034	inactive: -0.069	inactive: -0.03	inactive: -0.058	inactive: 0.036	inactive: 0.022	inactive: 0.029	inactive: -0.035	inactive: 0.03	inactive: -0.07
